Measurements from publication PMC8208791.
Where two headings read alike, the source gives them in different places. These are yes or no findings as the source states them, for the method shown. For some of these results: In cells and extracts the contact can be indirect. Some entries that bind do so weakly or less than the wild type. For some of these results: Where a sequence is shown, tags or fusion partners need not be part of it. One block for each molecule: values may come before it.

Sequences of proteins named here, by UniProt entry; tags and fusion partners are left off.
UniProt P06700: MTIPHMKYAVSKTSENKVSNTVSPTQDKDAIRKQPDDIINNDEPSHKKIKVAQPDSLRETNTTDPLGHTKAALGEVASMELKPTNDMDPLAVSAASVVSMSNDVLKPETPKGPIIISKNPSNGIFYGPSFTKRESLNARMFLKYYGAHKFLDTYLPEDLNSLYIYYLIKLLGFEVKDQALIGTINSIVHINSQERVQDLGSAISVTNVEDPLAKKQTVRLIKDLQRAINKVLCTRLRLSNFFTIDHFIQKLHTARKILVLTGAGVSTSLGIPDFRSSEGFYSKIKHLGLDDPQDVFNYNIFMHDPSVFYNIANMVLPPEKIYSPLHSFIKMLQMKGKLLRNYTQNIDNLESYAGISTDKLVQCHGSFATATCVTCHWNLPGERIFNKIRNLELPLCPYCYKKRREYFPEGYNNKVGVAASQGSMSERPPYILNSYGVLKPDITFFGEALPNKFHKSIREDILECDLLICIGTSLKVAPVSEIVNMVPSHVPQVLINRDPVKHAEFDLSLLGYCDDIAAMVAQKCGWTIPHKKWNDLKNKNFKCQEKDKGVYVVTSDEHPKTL

Assays:
[1] = target: T1, Smc6^FLAG (S. cerevisiae) (UniProt Q12749); assay: co-IP; yeast cell lysates (log phase, 2 h at 30°C; 50 mM HEPES, 140 mM NaCl, 1 mM EDTA, 1% Triton X-100) with antibody-coupled Dynabeads 2 h at 4°C; washes with 250 mM LiCl, 0.5% NP-40; western blot against the epitope tags or Sir2; done in wild type and in nse3-1 mutant cells (recovery unaltered)
T1 sequence: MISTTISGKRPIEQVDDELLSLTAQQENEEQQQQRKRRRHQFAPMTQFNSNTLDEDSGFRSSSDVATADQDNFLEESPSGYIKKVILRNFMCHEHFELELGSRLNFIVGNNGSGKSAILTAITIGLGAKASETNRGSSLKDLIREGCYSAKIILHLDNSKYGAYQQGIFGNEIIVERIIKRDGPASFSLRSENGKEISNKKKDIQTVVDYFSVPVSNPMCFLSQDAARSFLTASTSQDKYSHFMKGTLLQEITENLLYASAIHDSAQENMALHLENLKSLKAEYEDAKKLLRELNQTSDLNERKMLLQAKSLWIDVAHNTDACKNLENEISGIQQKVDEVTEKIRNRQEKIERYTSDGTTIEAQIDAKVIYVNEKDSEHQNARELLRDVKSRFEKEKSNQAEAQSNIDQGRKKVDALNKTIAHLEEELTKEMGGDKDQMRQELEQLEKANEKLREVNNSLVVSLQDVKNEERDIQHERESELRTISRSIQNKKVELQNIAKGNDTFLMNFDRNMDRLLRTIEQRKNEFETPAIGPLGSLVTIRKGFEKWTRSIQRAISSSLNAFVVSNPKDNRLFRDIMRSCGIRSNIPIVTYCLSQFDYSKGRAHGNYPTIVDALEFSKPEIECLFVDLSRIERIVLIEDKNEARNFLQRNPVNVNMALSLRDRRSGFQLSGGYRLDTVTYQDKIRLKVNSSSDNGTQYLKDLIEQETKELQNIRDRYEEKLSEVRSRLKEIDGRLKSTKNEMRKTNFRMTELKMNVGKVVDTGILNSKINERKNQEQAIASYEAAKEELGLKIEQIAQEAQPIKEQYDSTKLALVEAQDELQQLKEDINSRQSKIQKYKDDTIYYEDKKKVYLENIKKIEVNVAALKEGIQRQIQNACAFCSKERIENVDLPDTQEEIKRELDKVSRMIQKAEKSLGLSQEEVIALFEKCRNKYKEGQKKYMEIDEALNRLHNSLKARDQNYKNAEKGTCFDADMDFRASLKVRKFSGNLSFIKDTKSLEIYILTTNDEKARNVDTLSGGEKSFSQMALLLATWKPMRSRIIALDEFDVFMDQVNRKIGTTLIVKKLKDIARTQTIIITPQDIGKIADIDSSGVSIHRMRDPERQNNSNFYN

Heh1^MYC (S. cerevisiae) = target: T2, Heh1^MYC (S. cerevisiae) (UniProt Q03707); assay: as above
T2 sequence: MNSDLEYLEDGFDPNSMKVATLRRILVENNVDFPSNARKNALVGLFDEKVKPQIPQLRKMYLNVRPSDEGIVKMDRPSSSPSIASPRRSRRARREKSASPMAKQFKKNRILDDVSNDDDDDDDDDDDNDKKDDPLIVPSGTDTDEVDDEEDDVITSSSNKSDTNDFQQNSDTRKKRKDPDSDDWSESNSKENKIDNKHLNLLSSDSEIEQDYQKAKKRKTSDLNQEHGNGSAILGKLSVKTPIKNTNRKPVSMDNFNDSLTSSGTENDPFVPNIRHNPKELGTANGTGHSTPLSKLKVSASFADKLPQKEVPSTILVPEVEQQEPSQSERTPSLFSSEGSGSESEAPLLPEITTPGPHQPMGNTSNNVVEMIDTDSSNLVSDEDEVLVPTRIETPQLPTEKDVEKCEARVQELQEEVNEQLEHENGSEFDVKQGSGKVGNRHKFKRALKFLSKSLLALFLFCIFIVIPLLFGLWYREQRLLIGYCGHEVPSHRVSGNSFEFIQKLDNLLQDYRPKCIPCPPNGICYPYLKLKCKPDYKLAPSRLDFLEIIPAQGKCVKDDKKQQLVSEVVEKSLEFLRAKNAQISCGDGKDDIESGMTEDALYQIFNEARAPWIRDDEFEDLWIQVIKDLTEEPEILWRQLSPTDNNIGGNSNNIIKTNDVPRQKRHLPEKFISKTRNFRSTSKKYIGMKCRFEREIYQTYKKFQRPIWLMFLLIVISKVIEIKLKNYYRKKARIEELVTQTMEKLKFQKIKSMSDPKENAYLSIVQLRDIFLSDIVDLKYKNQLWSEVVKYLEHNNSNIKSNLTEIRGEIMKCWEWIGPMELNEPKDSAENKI

[2] = target: T1, Smc6^FLAG (S. cerevisiae); assay: as above; remark: listed apart in the source
Csm1^TAP (S. cerevisiae) = target: T3, Csm1^TAP (S. cerevisiae) (UniProt P25651); assay: as above
T3 sequence: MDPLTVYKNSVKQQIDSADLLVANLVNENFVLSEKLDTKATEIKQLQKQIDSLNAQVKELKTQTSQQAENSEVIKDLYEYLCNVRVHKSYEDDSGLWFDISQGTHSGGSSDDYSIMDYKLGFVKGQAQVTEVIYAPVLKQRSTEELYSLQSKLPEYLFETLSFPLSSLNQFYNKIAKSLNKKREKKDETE

Heh1^TAP (S. cerevisiae) = target: T4, Heh1^TAP (S. cerevisiae) (UniProt Q03707); assay: as above
T4 sequence: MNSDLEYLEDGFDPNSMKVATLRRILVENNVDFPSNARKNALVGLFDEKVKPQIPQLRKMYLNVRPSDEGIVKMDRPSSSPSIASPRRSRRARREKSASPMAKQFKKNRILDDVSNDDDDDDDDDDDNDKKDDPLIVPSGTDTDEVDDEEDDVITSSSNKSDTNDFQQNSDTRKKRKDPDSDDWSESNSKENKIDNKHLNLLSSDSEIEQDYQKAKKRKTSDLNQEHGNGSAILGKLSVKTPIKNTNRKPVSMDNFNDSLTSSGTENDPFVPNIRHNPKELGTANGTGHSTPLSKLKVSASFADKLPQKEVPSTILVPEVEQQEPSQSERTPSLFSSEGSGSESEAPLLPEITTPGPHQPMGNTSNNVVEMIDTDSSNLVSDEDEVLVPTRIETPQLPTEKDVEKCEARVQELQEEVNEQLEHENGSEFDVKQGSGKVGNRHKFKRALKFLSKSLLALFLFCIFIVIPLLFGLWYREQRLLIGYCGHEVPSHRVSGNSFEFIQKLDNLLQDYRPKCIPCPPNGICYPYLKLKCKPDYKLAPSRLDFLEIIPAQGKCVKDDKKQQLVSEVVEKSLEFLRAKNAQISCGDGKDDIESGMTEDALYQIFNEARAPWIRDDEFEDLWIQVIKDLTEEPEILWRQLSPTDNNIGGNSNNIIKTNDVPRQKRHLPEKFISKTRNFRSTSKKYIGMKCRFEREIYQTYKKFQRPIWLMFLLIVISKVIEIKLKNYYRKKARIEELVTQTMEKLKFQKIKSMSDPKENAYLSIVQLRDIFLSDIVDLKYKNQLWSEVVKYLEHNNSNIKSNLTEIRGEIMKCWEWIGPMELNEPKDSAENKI

Nse6 (S. cerevisiae) = target: T5, Nse6 (S. cerevisiae) (UniProt P40026); assay: two-hybrid; bait (J 965), prey (J 1493) and reporter (J 359) plasmids in strain JC 1280; 6 h in 2% glucose or 2% galactose at 30°C; beta-galactosidase activity with ONPG, OD420 normalised to OD600
T5 sequence: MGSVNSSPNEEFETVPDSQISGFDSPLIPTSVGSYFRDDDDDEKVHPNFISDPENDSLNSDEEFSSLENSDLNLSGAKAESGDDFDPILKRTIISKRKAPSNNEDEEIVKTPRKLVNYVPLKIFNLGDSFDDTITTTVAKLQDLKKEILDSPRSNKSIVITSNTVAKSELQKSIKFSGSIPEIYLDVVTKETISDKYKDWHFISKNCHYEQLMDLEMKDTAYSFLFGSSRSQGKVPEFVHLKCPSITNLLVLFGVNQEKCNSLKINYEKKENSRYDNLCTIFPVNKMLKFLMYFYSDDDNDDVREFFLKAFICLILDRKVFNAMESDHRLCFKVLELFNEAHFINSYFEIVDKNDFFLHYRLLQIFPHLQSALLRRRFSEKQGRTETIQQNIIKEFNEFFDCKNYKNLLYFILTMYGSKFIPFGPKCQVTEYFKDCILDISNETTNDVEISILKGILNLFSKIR

binding [1]: binds
Molecule: Sir2 (from UniProt P06700 1-562)

binding (Csm1^TAP (S. cerevisiae)): binds
binding (Heh1^TAP (S. cerevisiae)): binds
B2: Smc6^FLAG (protein, UniProt Q12749 1-1114)
chain: MISTTISGKRPIEQVDDELLSLTAQQENEEQQQQRKRRRHQFAPMTQFNSNTLDEDSGFRSSSDVATADQDNFLEESPSGYIKKVILRNFMCHEHFELELGSRLNFIVGNNGSGKSAILTAITIGLGAKASETNRGSSLKDLIREGCYSAKIILHLDNSKYGAYQQGIFGNEIIVERIIKRDGPASFSLRSENGKEISNKKKDIQTVVDYFSVPVSNPMCFLSQDAARSFLTASTSQDKYSHFMKGTLLQEITENLLYASAIHDSAQENMALHLENLKSLKAEYEDAKKLLRELNQTSDLNERKMLLQAKSLWIDVAHNTDACKNLENEISGIQQKVDEVTEKIRNRQEKIERYTSDGTTIEAQIDAKVIYVNEKDSEHQNARELLRDVKSRFEKEKSNQAEAQSNIDQGRKKVDALNKTIAHLEEELTKEMGGDKDQMRQELEQLEKANEKLREVNNSLVVSLQDVKNEERDIQHERESELRTISRSIQNKKVELQNIAKGNDTFLMNFDRNMDRLLRTIEQRKNEFETPAIGPLGSLVTIRKGFEKWTRSIQRAISSSLNAFVVSNPKDNRLFRDIMRSCGIRSNIPIVTYCLSQFDYSKGRAHGNYPTIVDALEFSKPEIECLFVDLSRIERIVLIEDKNEARNFLQRNPVNVNMALSLRDRRSGFQLSGGYRLDTVTYQDKIRLKVNSSSDNGTQYLKDLIEQETKELQNIRDRYEEKLSEVRSRLKEIDGRLKSTKNEMRKTNFRMTELKMNVGKVVDTGILNSKINERKNQEQAIASYEAAKEELGLKIEQIAQEAQPIKEQYDSTKLALVEAQDELQQLKEDINSRQSKIQKYKDDTIYYEDKKKVYLENIKKIEVNVAALKEGIQRQIQNACAFCSKERIENVDLPDTQEEIKRELDKVSRMIQKAEKSLGLSQEEVIALFEKCRNKYKEGQKKYMEIDEALNRLHNSLKARDQNYKNAEKGTCFDADMDFRASLKVRKFSGNLSFIKDTKSLEIYILTTNDEKARNVDTLSGGEKSFSQMALLLATWKPMRSRIIALDEFDVFMDQVNRKIGTTLIVKKLKDIARTQTIIITPQDIGKIADIDSSGVSIHRMRDPERQNNSNFYN

More lines, now with the values behind:

B1: Csm1^TAP (protein, UniProt P25651 1-190)
chain: MDPLTVYKNSVKQQIDSADLLVANLVNENFVLSEKLDTKATEIKQLQKQIDSLNAQVKELKTQTSQQAENSEVIKDLYEYLCNVRVHKSYEDDSGLWFDISQGTHSGGSSDDYSIMDYKLGFVKGQAQVTEVIYAPVLKQRSTEELYSLQSKLPEYLFETLSFPLSSLNQFYNKIAKSLNKKREKKDETE
binding (Heh1^MYC (S. cerevisiae)): binds
binding [2]: binds

B3: Heh1^TAP (protein, UniProt Q03707 1-834)
chain: MNSDLEYLEDGFDPNSMKVATLRRILVENNVDFPSNARKNALVGLFDEKVKPQIPQLRKMYLNVRPSDEGIVKMDRPSSSPSIASPRRSRRARREKSASPMAKQFKKNRILDDVSNDDDDDDDDDDDNDKKDDPLIVPSGTDTDEVDDEEDDVITSSSNKSDTNDFQQNSDTRKKRKDPDSDDWSESNSKENKIDNKHLNLLSSDSEIEQDYQKAKKRKTSDLNQEHGNGSAILGKLSVKTPIKNTNRKPVSMDNFNDSLTSSGTENDPFVPNIRHNPKELGTANGTGHSTPLSKLKVSASFADKLPQKEVPSTILVPEVEQQEPSQSERTPSLFSSEGSGSESEAPLLPEITTPGPHQPMGNTSNNVVEMIDTDSSNLVSDEDEVLVPTRIETPQLPTEKDVEKCEARVQELQEEVNEQLEHENGSEFDVKQGSGKVGNRHKFKRALKFLSKSLLALFLFCIFIVIPLLFGLWYREQRLLIGYCGHEVPSHRVSGNSFEFIQKLDNLLQDYRPKCIPCPPNGICYPYLKLKCKPDYKLAPSRLDFLEIIPAQGKCVKDDKKQQLVSEVVEKSLEFLRAKNAQISCGDGKDDIESGMTEDALYQIFNEARAPWIRDDEFEDLWIQVIKDLTEEPEILWRQLSPTDNNIGGNSNNIIKTNDVPRQKRHLPEKFISKTRNFRSTSKKYIGMKCRFEREIYQTYKKFQRPIWLMFLLIVISKVIEIKLKNYYRKKARIEELVTQTMEKLKFQKIKSMSDPKENAYLSIVQLRDIFLSDIVDLKYKNQLWSEVVKYLEHNNSNIKSNLTEIRGEIMKCWEWIGPMELNEPKDSAENKI
binding [2]: binds

B4: Lrs4 (protein, UniProt Q04087 1-347)
chain: MTTLLQLLSNYYKAKLDSERIYNEYVQSQYEFASLDKLNNNKGDPKKVVDETLFLQRQIAQLNKQLQLSFQENEKLLSVQKNQKALYQSKLSSKDAFIDDLKLKLKVEQISVDKHNKERTPSTGRDEQQRNSKAAHTSKPTIHLLSPIVNRDKPNNQTNDRGGNDPDSPTSQRRSRGLRSLLSSGKNTIFDSISKNLDDEINENAHIRNDTTSSKIAGKSPSRLSALQKSPELRKERNNMILKEHILRSKDDQNITSSRKLDNIELSSIGDSTAMTSRSSTVNANDILGNEENDGITKLKRVNKLTSSPVKRDCSTNKKRKLTKQRIATLPNSDEELSNNLNVDEFV
binding (Nse6 (S. cerevisiae)): binds
